The target in this assay is T1, GarA (Mycobacterium tuberculosis) (UniProt P9WJA9).
T1 sequence (looked up): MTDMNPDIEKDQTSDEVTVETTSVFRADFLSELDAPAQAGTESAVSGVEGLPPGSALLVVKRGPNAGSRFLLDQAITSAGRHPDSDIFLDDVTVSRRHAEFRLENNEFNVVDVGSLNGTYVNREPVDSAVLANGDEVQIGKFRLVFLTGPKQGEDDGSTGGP
The assay is described as follows: ELISA screening. In general terms: An ELISA detects its analyte on a solid surface through an enzyme-linked reagent.

Results are given in words; binding and its absence hold for the method and conditions named. Some binding calls cover weakened binding; strength is not graded here. Tags and fused reporters may be left off the sequences shown.

B1: GarA-binder of SEQ ID No: 47 (designed binder)
chain: GSVKVKFLYLGEEKEVDTSKIWFVMRAGKHVYFQYDDNGKYGIGWVREKDAPKELLDMLARAEREKKL
Regarding B1, the binding result is “binds”.

Source of the values: patent US20100145008A1.
